Results on 3 molecules are retold here after paper doi:10.1101/2023.08.23.554462.

Protein sequences, listed by entry. Tags and fused reporters are not part of them.
UniProt Q9UNE7: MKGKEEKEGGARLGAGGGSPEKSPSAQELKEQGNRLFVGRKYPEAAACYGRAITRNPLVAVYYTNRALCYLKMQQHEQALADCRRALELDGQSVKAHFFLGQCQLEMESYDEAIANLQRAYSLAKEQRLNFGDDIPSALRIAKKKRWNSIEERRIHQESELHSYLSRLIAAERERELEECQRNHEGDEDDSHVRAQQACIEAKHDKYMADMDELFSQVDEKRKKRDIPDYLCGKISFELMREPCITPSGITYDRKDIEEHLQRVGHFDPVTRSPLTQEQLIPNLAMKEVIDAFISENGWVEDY

Results are given in words; binding and its absence hold for the method and conditions named. Binding seen in cells or lysates may run through a third protein. Some results given as binding are weak or reduced against the parent protein; the word gives no strength. Where a sequence is shown, tags or fusion partners need not be part of it.

In assay [1] the target is T1, Flag-YTHDF1 YTH domain (human) (UniProt Q9BYJ9).
T1 sequence: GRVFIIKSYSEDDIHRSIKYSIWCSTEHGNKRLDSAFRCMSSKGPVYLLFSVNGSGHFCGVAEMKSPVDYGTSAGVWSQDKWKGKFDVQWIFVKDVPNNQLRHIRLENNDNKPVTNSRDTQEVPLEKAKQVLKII
Kind of assay: co-IP.

The target in assay [2] is T2, Flag-YTHDF1 (human) (UniProt Q9BYJ9).
T2 sequence: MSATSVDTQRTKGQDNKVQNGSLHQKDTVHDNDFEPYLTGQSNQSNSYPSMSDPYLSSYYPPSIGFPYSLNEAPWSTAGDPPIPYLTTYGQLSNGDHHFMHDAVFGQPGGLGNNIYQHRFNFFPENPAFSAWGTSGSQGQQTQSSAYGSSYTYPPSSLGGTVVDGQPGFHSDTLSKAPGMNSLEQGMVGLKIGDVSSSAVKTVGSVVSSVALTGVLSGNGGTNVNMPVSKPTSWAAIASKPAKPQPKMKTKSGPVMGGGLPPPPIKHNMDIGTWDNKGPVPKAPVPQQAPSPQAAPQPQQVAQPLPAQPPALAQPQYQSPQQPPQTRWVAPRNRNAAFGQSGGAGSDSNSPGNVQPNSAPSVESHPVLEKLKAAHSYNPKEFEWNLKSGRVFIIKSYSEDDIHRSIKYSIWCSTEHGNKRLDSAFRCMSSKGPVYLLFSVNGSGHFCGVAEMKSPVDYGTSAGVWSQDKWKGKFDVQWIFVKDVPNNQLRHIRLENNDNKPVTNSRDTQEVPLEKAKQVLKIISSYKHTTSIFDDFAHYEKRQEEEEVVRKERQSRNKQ
Description: co-IP.

Assay [3] concerns the target T3, Flag-YTHDF2 (human) (UniProt Q9Y5A9).
T3 sequence: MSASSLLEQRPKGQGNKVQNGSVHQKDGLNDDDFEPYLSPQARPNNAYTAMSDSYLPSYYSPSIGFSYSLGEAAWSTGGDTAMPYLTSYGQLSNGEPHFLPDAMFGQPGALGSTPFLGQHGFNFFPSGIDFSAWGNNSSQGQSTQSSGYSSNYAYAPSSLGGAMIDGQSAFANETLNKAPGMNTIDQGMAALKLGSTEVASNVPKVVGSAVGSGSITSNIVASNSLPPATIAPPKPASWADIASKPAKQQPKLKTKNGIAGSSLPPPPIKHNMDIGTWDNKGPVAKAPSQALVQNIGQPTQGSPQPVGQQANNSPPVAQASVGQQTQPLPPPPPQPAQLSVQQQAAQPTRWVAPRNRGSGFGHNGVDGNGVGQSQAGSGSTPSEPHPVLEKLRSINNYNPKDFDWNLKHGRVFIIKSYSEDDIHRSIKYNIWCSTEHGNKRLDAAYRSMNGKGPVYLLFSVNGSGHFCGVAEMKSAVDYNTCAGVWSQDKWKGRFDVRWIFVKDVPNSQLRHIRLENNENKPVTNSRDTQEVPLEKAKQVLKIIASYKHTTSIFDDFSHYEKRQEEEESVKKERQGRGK
Kind of assay: co-IP.

The target in assay [4] is T4, endogenous YTHDF1 with 2xFlag and Cherry at the C terminus (YTHDF1^Flag-Cherry) (human (endogenous in HEK293T)) (UniProt Q9BYJ9).
T4 sequence: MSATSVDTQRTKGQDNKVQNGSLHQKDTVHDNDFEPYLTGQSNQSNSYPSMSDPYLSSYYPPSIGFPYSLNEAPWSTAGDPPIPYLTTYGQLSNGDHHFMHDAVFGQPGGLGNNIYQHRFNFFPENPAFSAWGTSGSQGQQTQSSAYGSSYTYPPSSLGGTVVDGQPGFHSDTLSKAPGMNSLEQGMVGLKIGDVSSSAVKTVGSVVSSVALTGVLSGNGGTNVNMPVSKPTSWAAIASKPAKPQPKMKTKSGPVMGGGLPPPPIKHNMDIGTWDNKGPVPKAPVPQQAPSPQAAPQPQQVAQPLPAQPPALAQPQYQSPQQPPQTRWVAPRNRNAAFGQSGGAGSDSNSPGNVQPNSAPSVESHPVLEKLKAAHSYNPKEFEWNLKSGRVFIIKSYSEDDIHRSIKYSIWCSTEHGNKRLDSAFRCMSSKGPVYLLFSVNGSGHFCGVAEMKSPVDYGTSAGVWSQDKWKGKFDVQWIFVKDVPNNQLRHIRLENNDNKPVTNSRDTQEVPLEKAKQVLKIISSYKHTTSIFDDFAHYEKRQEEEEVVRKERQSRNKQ
Kind of assay: co-IP.

For assay [5], the target named is T5, GST-YTHDF1 (human) (UniProt Q9BYJ9).
T5 sequence: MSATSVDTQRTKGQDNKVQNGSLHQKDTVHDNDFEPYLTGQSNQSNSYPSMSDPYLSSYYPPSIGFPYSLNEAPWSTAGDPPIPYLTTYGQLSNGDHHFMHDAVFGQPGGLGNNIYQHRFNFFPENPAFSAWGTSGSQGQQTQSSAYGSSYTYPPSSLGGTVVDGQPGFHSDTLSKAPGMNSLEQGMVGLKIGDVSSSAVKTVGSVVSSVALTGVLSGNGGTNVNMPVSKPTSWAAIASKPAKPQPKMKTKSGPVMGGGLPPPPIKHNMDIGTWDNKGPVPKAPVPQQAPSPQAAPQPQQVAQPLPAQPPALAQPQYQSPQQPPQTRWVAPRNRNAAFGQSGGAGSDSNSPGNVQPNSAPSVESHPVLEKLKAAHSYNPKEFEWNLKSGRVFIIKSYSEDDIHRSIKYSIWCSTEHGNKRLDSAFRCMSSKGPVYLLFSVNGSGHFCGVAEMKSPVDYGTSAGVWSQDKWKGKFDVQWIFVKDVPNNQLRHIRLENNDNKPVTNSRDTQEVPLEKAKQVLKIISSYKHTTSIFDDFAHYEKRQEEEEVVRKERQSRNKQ
Description: pull-down.

The target of assay [6] is StrepII-STUB1, transfected in HEK293T cells (UniProt Q9UNE7). Description: co-IP.

For Myc-STUB1 (from UniProt Q9UNE7 1-303), the binding result in assay [1], in assay [2] and in assay [3] was “binds” each time.
As to “endogenous STUB1 (from UniProt Q9UNE7 1-303)”, the binding result in assay [4] and in assay [5] was “binds” in each case.

B1: HA-YTHDF1 (protein, UniProt Q9BYJ9 1-559)
chain: MSATSVDTQRTKGQDNKVQNGSLHQKDTVHDNDFEPYLTGQSNQSNSYPSMSDPYLSSYYPPSIGFPYSLNEAPWSTAGDPPIPYLTTYGQLSNGDHHFMHDAVFGQPGGLGNNIYQHRFNFFPENPAFSAWGTSGSQGQQTQSSAYGSSYTYPPSSLGGTVVDGQPGFHSDTLSKAPGMNSLEQGMVGLKIGDVSSSAVKTVGSVVSSVALTGVLSGNGGTNVNMPVSKPTSWAAIASKPAKPQPKMKTKSGPVMGGGLPPPPIKHNMDIGTWDNKGPVPKAPVPQQAPSPQAAPQPQQVAQPLPAQPPALAQPQYQSPQQPPQTRWVAPRNRNAAFGQSGGAGSDSNSPGNVQPNSAPSVESHPVLEKLKAAHSYNPKEFEWNLKSGRVFIIKSYSEDDIHRSIKYSIWCSTEHGNKRLDSAFRCMSSKGPVYLLFSVNGSGHFCGVAEMKSPVDYGTSAGVWSQDKWKGKFDVQWIFVKDVPNNQLRHIRLENNDNKPVTNSRDTQEVPLEKAKQVLKIISSYKHTTSIFDDFAHYEKRQEEEEVVRKERQSRNKQ
As to B1, in assay [6], the binding entry was “binds”.
